The target in this assay is full-length TrkC (TrkC-FL) (UniProt Q16288). In words: co-IP; HEK293 lysates expressing TrkC.T1, TrkC-FL or TrkC-Δ-ICD; immunoprecipitated with a pan-TrkC antibody; reducing and non-reducing SDS-PAGE; blotted with two anti-PDI mAbs or anti-pan-TrkC.

Amino acid sequences for entries named in this document (tags omitted). Residues count along the entry.
UniProt Q16288, residues 32-839: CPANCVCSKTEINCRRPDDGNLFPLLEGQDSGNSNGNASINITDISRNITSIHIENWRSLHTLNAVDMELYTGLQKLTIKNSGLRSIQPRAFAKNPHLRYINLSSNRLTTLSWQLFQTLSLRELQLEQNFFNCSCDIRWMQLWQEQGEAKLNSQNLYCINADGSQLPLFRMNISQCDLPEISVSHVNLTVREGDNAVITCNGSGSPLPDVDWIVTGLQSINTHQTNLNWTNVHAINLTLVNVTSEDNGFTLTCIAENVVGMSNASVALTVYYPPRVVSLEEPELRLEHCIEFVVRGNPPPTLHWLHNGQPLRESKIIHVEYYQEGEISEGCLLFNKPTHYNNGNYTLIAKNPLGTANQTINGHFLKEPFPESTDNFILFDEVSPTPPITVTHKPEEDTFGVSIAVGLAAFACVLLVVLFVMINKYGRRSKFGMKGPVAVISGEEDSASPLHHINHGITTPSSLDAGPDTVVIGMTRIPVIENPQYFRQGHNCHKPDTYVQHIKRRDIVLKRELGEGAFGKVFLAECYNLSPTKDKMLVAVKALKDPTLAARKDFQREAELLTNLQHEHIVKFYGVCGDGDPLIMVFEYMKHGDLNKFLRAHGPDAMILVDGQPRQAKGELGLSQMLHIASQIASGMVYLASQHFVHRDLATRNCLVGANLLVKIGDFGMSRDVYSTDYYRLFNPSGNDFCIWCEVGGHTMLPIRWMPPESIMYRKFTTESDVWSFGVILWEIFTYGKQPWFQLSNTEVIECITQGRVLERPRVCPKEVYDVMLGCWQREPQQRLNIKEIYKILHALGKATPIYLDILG
UniProt P07237, residues 18-508: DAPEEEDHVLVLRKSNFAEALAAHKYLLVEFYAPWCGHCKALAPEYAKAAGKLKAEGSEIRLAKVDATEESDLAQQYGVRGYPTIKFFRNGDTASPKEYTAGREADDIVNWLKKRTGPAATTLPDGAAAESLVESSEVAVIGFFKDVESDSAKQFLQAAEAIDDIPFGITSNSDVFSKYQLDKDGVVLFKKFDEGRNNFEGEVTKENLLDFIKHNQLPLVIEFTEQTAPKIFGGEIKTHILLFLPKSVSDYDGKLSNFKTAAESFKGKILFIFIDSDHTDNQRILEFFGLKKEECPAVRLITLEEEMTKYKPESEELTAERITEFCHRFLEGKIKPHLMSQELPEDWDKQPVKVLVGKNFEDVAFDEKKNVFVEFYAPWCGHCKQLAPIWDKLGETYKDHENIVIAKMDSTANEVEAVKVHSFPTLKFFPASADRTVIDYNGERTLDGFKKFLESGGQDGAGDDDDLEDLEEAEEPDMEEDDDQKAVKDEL

No constants are given. Whether binding was seen depends on the method and setting. Binding seen in cells or lysates may run through a third protein. Some entries that bind do so weakly or less than the wild type.

Turning to “Protein Disulfide Isomerase (PDI) (from UniProt P07237 18-508) (enzyme)”, the binding result is “binds”.

The values are drawn from PMC7452315, “Alternative Splicing of a Receptor Intracellular Domain Yields Different Ectodomain Conformations, Enabling Isoform-Selective Functional Ligands” (iScience, 2020).
